Laboratory results published in doi:10.1101/2024.07.20.604396.
Results are given in words; binding and its absence hold for the method and conditions named. Binding seen in cells or lysates may run through a third protein. A result given as binding can be weak or reduced; the word gives no strength. One block for each binder: values may come before it.

Columns and labels:
mCherry::Rab11 = assay: co-IP
[1] = target: HA::Insep (Inseparable, CG32069) (Drosophila) (UniProt Q9VTE1); assay: co-IP

binding (mCherry::Rab11): binds
B1: IER3IP1 (in HCT116 or HEK293 cells) (protein, UniProt Q9Y5U9 1-82)
chain: MAFTLYSLLQAALLCVNAIAVLHEERFLKNIGWGTDQGIGGFGEEPGIKSQLMNLIRSVRTVMRVPLIIVNSIAIVLLLLFG

binding [1]: binds
B2: Rab11 (Drosophila, in S2 cells) (protein, UniProt O18335 1-214)
chain: MGAREDEYDYLFKVVLIGDSGVGKSNLLSRFTRNEFNLESKSTIGVEFATRSIEVDGKTIKAQIWDTAGQERYRAITSAYYRGAVGALLVYDIAKHLTYENVERWLRELRDHADQNIVIMLVGNKSDLRHLRSVPTDEAKLFAERNGLSFIETSALDSTNVETAFQNILTEIYRIVSQKQIRDPPEGDVIRPSNVEPIDVKPTVTADVRKQCCQ
